Laboratory results published in PubChem BioAssay AID504467 (National Center for Advancing Translational Sciences (NCATS), 2011).
Out of some 330,000 compounds screened, about 7,700 (2.3%) were called active. Inconclusive means that the source gave no clear call. Such entries were picked first, then a sample of the others. Calls follow the shape of the dose curve; as a rule, active = well fitted inhibition curve with a large enough effect; inconclusive = small, poorly fitted or top-dose-only effect, or effect the other way; inactive = flat fitted curve, though single readings scatter. A potency beside an inconclusive call is a rough fit, not a confirmed value.

Experiment: qHTS screen for small molecules that inhibit ELG1-dependent DNA repair in human embryonic kidney (HEK293T) cells expressing luciferase-tagged ELG1; also: nearly all actives have a fitted effect of over 55% in size
Settings: HEK293T ELG1-luciferase reporter, luminescence, 16 h, DNA damage induced by 5-fluorouridine; activity change, negative = inhibition: at 46.1 µM (top of the series)
Procedure, shortened: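 Reporter activity after DNA damage by 5-fluorouridine is monitored. Compound-treated cells incubate 16 hr at 37 °C, then ONE-Glo is added for 30 min before luminescence reading.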
% is scaled to controls: 0 for no effect and ±100 for the full control effect; potency is read from the fitted curve at half-maximal effect.

Row | Structure (SMILES) | Potency | activity change, negative = inhibition
1 | Cc1cccc(NC(=O)CNC(=O)COc2ccc(C(=O)c3ccc(F)cc3)cc2)c1C | inconclusive: 14.6 µM [inhibitor, partial curve, poor fit] | 
2 | COc1cccc(/C=N/NC(=O)C[n+]2ccccc2)c1OC |  | inactive: 19.6%
3 | COCCOC(=O)c1[nH]c2c(c1C)C(=O)CC(c1ccc(OC)c(OC)c1)C2 (stereo not drawn) | inconclusive: 29.1 µM [inhibitor, partial curve, poor fit] | 
4 | Cc1nc2ccc(N=NC3=C(O)CC(C)(C)CC3=O)cc2s1 | inconclusive: 3.26 µM [activator, full curve] | 
5 | Cc1ccc(N2CC(C(=O)N3CCOCC3)CC2=O)cc1Cl (stereo not drawn) |  | inactive: 22.5%
6 | Cc1ccc2c(c1)N(CC(=O)NC1CCC(C)CC1)C(=O)c1cccnc1O2 (stereo not drawn) |  | inactive: -14.9%
7 | COc1ccc(-c2ncncc2-c2ccc(Cl)cc2)c(O)c1 | inconclusive: 18.3 µM [inhibitor, single point] | 
8 | CCN(CC(=O)Nc1ccc(OC)c(OC)c1)S(=O)(=O)c1ccc(C)cc1 | inconclusive: 16.4 µM [inhibitor, partial curve, poor fit] | 
9 | Cc1csc(NC(=O)c2ccc(C)o2)n1 | inconclusive: 16.4 µM [activator, partial curve] | 
10 | COc1ccccc1/C=C\C=N\NC(=O)CCn1nnc2ccccc21 |  | inactive: -17.5%
11 | C[C@@H](C(=O)Nc1ccc(SC(F)F)cc1)N1C(=O)C2CCCCC2C1=O (stereo partly drawn) | inconclusive: 23.1 µM [activator, partial curve, poor fit] | 
12 | CCOC(=O)C1CCN(C(=O)C2CCCN2S(=O)(=O)c2ccc(Cl)cc2)CC1 (stereo not drawn) |  | inactive: 7.87%
13 | COc1cccc(/C=N/NC(=S)Nc2cccnc2)c1 | inconclusive: 18.3 µM [activator, single point] | 
14 | COc1cc(SC)ccc1C(=O)N(Cc1ccccc1)c1ccccc1 |  | inactive: -10.4%
15 | COC(=O)c1sc(N/N=C/c2ccc(C(C)C)cc2)nc1C | inconclusive: 3.66 µM [activator, partial curve, poor fit] | 
16 | O=C(O)Cc1ccc(NC(=O)c2cnccn2)cc1 |  | inactive: 10.6%
17 | COc1ccc(-c2csc(NC(=O)c3cccc(N4C(=O)CCC4=O)c3)n2)cc1OC | inconclusive: 23.1 µM [inhibitor, single point] | 
18 | Cc1cccc(Nc2nc(-c3sc(C)nc3C)cs2)c1 | inconclusive: 25.1 µM [inhibitor, single point] | 
19 | O=C(COc1cccc2cccnc12)N1CCc2ccccc21 |  | inactive: 20.3%
20 | N#CCCN(NC1=NS(=O)(=O)c2ccccc21)C(=O)c1ccccc1Br |  | inactive: 3.26%
21 | CCOC(=O)c1cnn(C(=O)c2ccccc2)c1N |  | inactive: 0.995%
22 | COc1ccc(OC)c(N/C(=N/C(=S)Nc2ccccc2)Nc2nc(C)cc(C)n2)c1 | inconclusive: 3.66 µM [inhibitor, partial curve] | 
23 | COc1ccccc1C(=O)Nc1cc2cc(Br)ccc2oc1=O | inconclusive: 6.51 µM [activator, partial curve, poor fit] | 
24 | Cc1onc(-c2ccccc2Cl)c1C(=O)NC(=S)Nc1ccccc1F | inconclusive: 18.3 µM [inhibitor, partial curve, poor fit] | 

Row | Structure (SMILES) | Potency | activity change, negative = inhibition
25 | O=c1c2ccccc2nc2c3ccccc3c(Cl)nn12 |  | inactive: -2.35%
26 | O=[N+]([O-])c1ccc(Cl)c(/C=N/N2CCN(Cc3ccc(Cl)cc3)CC2)c1 |  | inactive: -1.95%
27 | Cc1cccc(CCNC(=O)C2CCCN(S(=O)(=O)c3cccc4nsnc34)C2)c1 (stereo not drawn) | inconclusive: 20.6 µM [inhibitor, single point] | 
28 | CCOc1ccc(Nc2cc(C)nc3c(C)cccc23)cc1 |  | inactive: 0.611%
29 | Cc1cc(Nc2ccccc2C(=O)O)n(-c2ccc([N+](=O)[O-])cc2)n1 |  | inactive: -20.8%
30 | OCC1(CCOc2ccccc2)CCN(Cc2ccc3cccc(F)c3n2)CC1 | inconclusive: 29.1 µM [inhibitor, single point] | 
31 | CCCCC(=O)Nc1ccc(C(=O)NNC(=O)CCCOc2ccc(Cl)cc2Cl)cc1 | inconclusive: 10.3 µM [activator, partial curve, poor fit] | 
32 | O=C1CSC(=S)N1/N=C/c1ccc(O)c(O)c1O | active: 23.1 µM | 
33 | Cn1c(=O)cc(OCC(=O)NCc2ccccn2)c2ccccc21 | inconclusive: 29.1 µM [activator, single point] | 
34 | CC1(C)CC(=O)C(C(C2=C(O)CC(C)(C)CC2=O)c2ccc([N+](=O)[O-])cc2)C(=O)C1 (stereo not drawn) |  | inactive: 5.3%
35 | NC(=O)c1nsc(C(=O)N(Cc2ccco2)C(C(=O)NCc2ccc(F)cc2)c2ccc(O)cc2)c1N (stereo not drawn) | active: 11.6 µM | 
36 | Cc1ccc(Nc2nc(CSc3nnc(-c4ccncc4)n3-c3ccccc3C)cs2)cc1 | inconclusive: 29.1 µM [inhibitor, single point] | 
37 | COCCCn1nnnc1SCC(=O)Nc1ccc2c(c1)OCCO2 |  | inactive: 21.3%
38 | Cc1oc(-c2ccccc2F)nc1CS(=O)CC(=O)NCc1ccc(F)cc1 (stereo not drawn) |  | inactive: -5.71%
39 | FC(F)Sc1ccc(-n2cc(-c3ccc(Cl)cc3)[n+]3c2CCC3)cc1 |  | inactive: -1.86%
40 | CCOC(=O)c1ccccc1NC(=O)c1nc2nccc(C)n2n1 | inconclusive: 29.1 µM [inhibitor, partial curve, poor fit] | 
41 | C=CCc1c(C)nc(-c2ccccc2)nc1Nc1ccccc1O | inconclusive: 16.4 µM [inhibitor, partial curve] | 
42 | COC(=O)c1c(/N=C/N(C)C)sc2c1CCN(c1ncc(C(F)(F)F)cc1Cl)C2 | active: 18.4 µM | 
43 | FC(F)(F)c1cccc(NC(=S)NC2CCCC2)c1 |  | inactive: -13.6%
44 | CN(Cc1cnccn1)Cc1cn(Cc2ccccc2)nc1-c1ccc2c(c1)OCO2 |  | inactive: -1.55%
45 | Cc1oc(-c2ccc(Cl)cc2)cc1C(=O)/C(C#N)=C/Nc1cccc(OC(F)(F)F)c1 | inconclusive: 29.1 µM [activator, partial curve, poor fit] | 
46 | COc1ccc(S(=O)(=O)Nc2ccc3oc(C)c(C(=O)O)c3c2)cc1 |  | inactive: -1.91%
47 | Cc1cc(N)n2ncc(-c3ccc(Cl)cc3)c2n1 | inconclusive: 20.6 µM [activator, partial curve] | 
48 | O=C(Nc1nc(-c2cccnc2)cs1)c1cccc([N+](=O)[O-])c1 | inconclusive: 13 µM [activator, partial curve] | 

Four entries from above, as comma-separated lines.
Row,Structure (SMILES),Potency,"activity change, negative = inhibition"
28,CCOc1ccc(Nc2cc(C)nc3c(C)cccc23)cc1,,inactive: 0.611%
29,Cc1cc(Nc2ccccc2C(=O)O)n(-c2ccc([N+](=O)[O-])cc2)n1,,inactive: -20.8%
30,OCC1(CCOc2ccccc2)CCN(Cc2ccc3cccc(F)c3n2)CC1,"inconclusive: 29.1 µM [inhibitor, single point]",
31,CCCCC(=O)Nc1ccc(C(=O)NNC(=O)CCCOc2ccc(Cl)cc2Cl)cc1,"inconclusive: 10.3 µM [activator, partial curve, poor fit]",
